Data reported in patent US20190388459A1, “NEW THERAPEUTIC USES” (ATLANTIC PHARMACEUTICALS (HOLDINGS) LTD, priority 2017, published 2019).
At least one compound was matched to its structure with a doubt left.

Test system: OVA-induced allergic asthma mouse model
Test: Ovalbumin-induced murine model of allergic asthma, BALF analysis
Format: in vivo, Balb/c mice
Conditions: Day 28; alicaforsen 1 mM IN 30 μl, dexamethasone 10 mg/kg IP, days 14, 25-27; listed as dexamethasone
Procedure: Allergic asthma was modeled in female BALB/c mice by initial sensitization to OVA followed by subsequent intranasal challenge of purified OVA.
Mice were monitored throughout the study for changes in body weight and general signs of sickness. Allergic response to OVA was measured by examining bronchoalveolar lavage fluid (BALF) for inflammatory cell influx and the presence of the inflammatory cytokine IL-13.
On days 0 and 14, each animal was administered an IP injection of 200 μL OVA/Alum emulsion containing 100 μg OVA.
On days 14 and 25-27, each animal was administered an intranasal challenge of 30 μL PBS containing 50 μg OVA.
Treatments were performed on the same days as OVA challenge on Study Days 14 and 25-27 (4 total treatments). Treatments were administered 1 hour following OVA challenge.
10 mg/kg dexamethasone was administered in 200 μL volume/animal (intraperitoneal) on Study Days 14 and 25-27 (4 total treatments).
Bonchoalveolar lavage was performed on euthanised animals. Briefly, an angiocatheter was placed into trachea. 1 mL of PBS was instilled into the lungs and allowed to flow back out into the syringe; the PBS was then instilled and removed again. The resultant Bronchoalveolar lavage fluid (BALF) was centrifuged at 500×g for 5 mins.
The non-cellular portion of the BALF was stored at −80° C. The levels of IL-13 were analyzed by Luminex technology.
The cellular portion of the BALF was used to analyze the cell influx. The total number of leukocytes within the BALF and different cell types present were examined via flow cytometry.
Granulocytes: CD45^+; Non-autofluorescent; Gr-1^+
Eosinophils: CD45^+; Non-autofluorescent; Gr-1^+; Siglec F^+

C[C@@H]1C[C@H]2[C@@H]3CCC4=CC(=O)C=C[C@]4(C)[C@@]3(F)[C@@H](O)C[C@]2(C)[C@@]1(O)C(=O)CO [Dexamethasone]
significantly reduced: BALF IL-13, Mean | Eosinophil (Frequency of CD45+) in BALF, Mean | Granulocyte (Frequency of CD45+) in BALF, Mean
